Data taken from patent publication US20230172877A1, “METABOLITES RELEASED FROM APOPTOTIC CELLS ACT AS NOVEL TISSUE MESSENGERS” (University of Virginia Patent Foundation, priority 2020, published 2023).
Like-named read-outs stand apart in the source and are kept apart here. Peptide text beside a SMILES is read from it.

Tested on: Jurkat T cells
Test: Untargeted metabolomics of supernatants and cell pellets of apoptotic (UV) versus live Jurkat T cells
Type: cell-based, human
[1] = Jurkat T cells, UV, cell pellet decrease, apoptotic versus live
[2] = Jurkat T cells, UV, supernatant enrichment, apoptotic versus live
[3] = Jurkat UV metabolite release, apoptotic versus live supernatant, 4 hours after apoptosis induction

| Compound | Fold Change (FAp/FL)-Cell [1] | Fold Change (FAp/FL)-Supe [2] | Fold Change (FAp/FL) [3] | further results |
| --- | --- | --- | --- | --- |
| CSCC[C@H](NC(C)=O)C(=O)O [N-acetylmethionine] | 0.50 | 1.70 | 1.70 | – |
| CC(=O)N[C@H]1[C@H]([C@@H](O)[C@@H](O)CO)O[C@@](O)(C(=O)O)C[C@@H]1O [N-acetylneuraminate] | 0.74 | 4.18 | 4.18 | – |
| CSCC[C@H](N)C(=O)O [methionine] | 0.70 | 1.20 | 1.20 | – |
| Nc1ccn([C@H]2C[C@H](O)[C@@H](COP(=O)(O)O)O2)c(=O)n1 [2′-deoxycytidine 5′-monophosphate] | 0.06 | 1.54 | 1.54 | – |
| CC(C)C[C@H](N)C(=O)O [leucine] | 0.70 | 1.24 | 1.24 | – |
| N2-acetyllysine/N6-acetyllysine | – | – | 2.62 | – |
| O=C(O)CNC(=O)Cc1ccccc1 [phenylacetylglycine] | – | – | 1.86 | – |
| N[C@@H](CCSC[C@H](N)C(=O)O)C(=O)O [cystathionine] | 0.08 | 2.52 | 2.52 | – |
| NCCc1c[nH]c2ccccc12 [tryptamine] | – | – | 1.46 | – |
| O=C(O)[C@@H]1CCCN1 [proline] | 0.48 | 1.16 | 1.16 | – |
| C[N+](C)(C)CCOP(=O)(O)OP(=O)([O-])OC[C@H]1O[C@@H](n2ccc(N)nc2=O)[C@H](O)[C@@H]1O [cytidine 5′-diphosphocholine] | – | – | 11.87 | – |
| N=C(N)NCCCC(=O)O [4-guanidinobutanoate] | 0.28 | 1.42 | 1.42 | – |
| O=C(O)CNC(=O)[C@@H]1CCCN1 [prolylglycine] (H-Pro-Gly-OH) | – | – | 7.37 | – |
| O=C(O)[C@H](O)[C@H](O)CO [erythronate*, erythronate] | – | – | – | Fold Change (FAp/FL): 1.13; Fold Change (FAp/FL)-Cell: 0.08; Fold Change (FAp/FL)-Supe: 1.13 |
| NCCCCNCCCN [spermidine] | 0.26 | 8.91 | 8.91 | – |
| N=C(N)NCCC[C@H](N)C(=O)O [arginine] | – | – | 1.04 | – |
| N[C@@H](CSS(=O)(=O)O)C(=O)O [cysteine s-sulfate] | – | – | 2.12 | – |
| Cc1cn([C@H]2C[C@H](O)[C@@H](CO)O2)c(=O)[nH]c1=O [thymidine] | – | – | 24.22 | – |
| Cn1cnc2c(ncn2[C@@H]2O[C@H](CO)[C@@H](O)[C@H]2O)c1=O [N1-methylinosine] | – | – | 1.47 | – |
| O=P(O)(OCC(O)CO)OCC(O)CO (stereo not drawn) [glycerophosphoglycerol] | 0.27 | 5.32 | 5.32 | – |
| Cn1c(=N)ccn([C@@H]2O[C@H](CO)[C@@H](O)[C@H]2O)c1=O [3-methylcytidine] | – | – | 1.53 | – |
| Nc1ncnc2nc[nH]c12 [adenine] | – | – | 4.63 | – |
| O=C(O)[C@H](O)[C@H](O)[C@@H](O)[C@H](O)CO [gulonic acid*, gulonic acid] | 0.11 | 2.71 | 2.71 | – |
| CC(C(=O)O)C(=O)O [methylmalonate (MMA), methylmalonate] | 0.15 | 1.68 | 1.68 | – |
| O=C(O)[C@@H]1CSCN1 [thioproline] | – | – | 1.40 | – |
